We go through one molecule from publication PMC8027081, “Structural Basis of VSIG3: The Ligand for VISTA” (Frontiers in Immunology, 2021).

Amino acid sequences for entries named in this document (tags omitted). A change or cut given only in a name is not applied to a line headed by its entry.
UniProt Q9H7M9: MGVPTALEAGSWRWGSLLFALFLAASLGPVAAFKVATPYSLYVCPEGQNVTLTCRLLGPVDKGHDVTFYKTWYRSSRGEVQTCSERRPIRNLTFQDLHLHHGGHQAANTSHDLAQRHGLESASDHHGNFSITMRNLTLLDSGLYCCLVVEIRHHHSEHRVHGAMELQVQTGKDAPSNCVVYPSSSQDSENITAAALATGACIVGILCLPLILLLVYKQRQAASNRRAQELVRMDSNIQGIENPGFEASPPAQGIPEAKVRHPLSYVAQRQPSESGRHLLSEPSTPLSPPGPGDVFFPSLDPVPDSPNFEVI

These are yes or no findings as the source states them, for the method shown. Binding can be weak; no strength is given.

The target in assay [1] is recombinant VISTA (human) (UniProt Q9H7M9). Nature of the assay: ELISA; functional ELISA binding assay of CHO-expressed VSIG3-ECD and recombinant VISTA; both purified.
For assay [2] the target is unchanged. Briefly: ELISA; binding of VSIG3/VISTA with different concentrations of a VSIG3 antibody; both purified.

B1: human VSIG3 extracellular domain (residues 23-241) expressed in E. coli, refolded (domain or fragment, UniProt Q5DX21 23-241, looked up)
chain: LEVSESPGSIQVARGQPAVLPCTFTTSAALINLNVIWMVTPLSNANQPEQVILYQGGQMFDGAPRFHGRVGFTGTMPATNVSIFINNTQLSDTGTYQCLVNNLPDIGGRNIGVTGLTVLVPPSAPHCQIQGSQDIGSDVILLCSSEEGIPRPTYLWEKLDNTLKLPPTATQDQVQGTVTIRNISALSSGLYQCVASNAIGTSTCLLDLQVISPQPRNIG
notes: VSIG3 (IgSF11), human, UniProt Q5DX21, residues 23-241 (extracellular domain without the 22-residue signal peptide); No PDB id is printed; also called VSIG3-ECD; IgSF11; not shown: His tag (from the vector pET28a)
In the case of B1, the binding result in assay [1] and in assay [2] was “binds” throughout.
